Reference: the supplement of paper PMC4604168 (melanoma cell lines)
The list shows a part of the results. Single values are uncertain, as repeats are few or missing.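 The apoptosis fraction was the count of cleaved-PARP antibody-stained nuclei relative to all DNA-stained nuclei, imaged in 1,536-well plates. Screening doses were set so most cells survived, and baseline and induced cleaved-PARP levels vary greatly across cell lines.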

Each compound was assayed on A101D (assay: cleaved PARP positive nuclei fraction relative to DMSO control; melanoma cells; higher = more apoptosis). Conditions: library dose: low library concentration; 72 h.

| SMILES | cleaved PARP positive nuclei fraction [%] |
| --- | --- |
| CN(c1ncccc1CNc1nc(Nc2ccc3c(c2)CC(=O)N3)ncc1C(F)(F)F)S(C)(=O)=O + COc1ccc(-c2ccc3c(N4CCOCC4)nc(N4C[C@@H](C)O[C@@H](C)C4)nc3n2)cc1CO [KU0063794] (first compound 0.08 µM, partner dose 0.02 µM) | 7.75 |
| CCN(CC)CCNC(=O)c1c(C)[nH]c(/C=C2\C(=O)Nc3ccc(F)cc32)c1C [sunitinib] + CCN(CC)CCCCNc1ncc2cc(-c3cc(OC)cc(OC)c3)c(NC(=O)NC(C)(C)C)nc2n1 [PD173074] (first compound 0.4 µM, partner dose 0.1 µM) | 15.4 |
| Cn1cnc2c(F)c(Nc3ccc(Br)cc3Cl)c(C(=O)NOCCO)cc21 [selumetinib] + O=C(Nc1ccccc1)c1cc([N+](=O)[O-])ccc1Cl [GW9662] (first compound 0.015 µM, partner dose 2 µM) | 34 |
| C[C@@H](N)c1ccc(C(=O)Nc2ccnc3[nH]ccc23)cc1 + COc1ccc2c(c1)CCC1C2CCC2(C)C(NCCCCCCN3C(=O)C=CC3=O)CCC12 [U73122] (first compound 0.4 µM, partner dose 0.4 µM) | 46.3 |
| CC(=O)O[C@@]12CO[C@@H]1C[C@H](O)[C@@]1(C)C(=O)[C@H](O)C3=C(C)[C@@H](OC(=O)[C@H](O)[C@@H](NC(=O)OC(C)(C)C)c4ccccc4)C[C@@](O)([C@@H](OC(=O)c4ccccc4)[C@H]21)C3(C)C [Docetaxel] + COc1ccc(-c2ccc3c(N4CCOCC4)nc(N4C[C@@H](C)O[C@@H](C)C4)nc3n2)cc1CO [KU0063794] (first compound 0.0001 µM, partner dose 0.02 µM) | 66.7 |
| CS(=O)(=O)c1ccc(C(=O)Nc2ccc(Cl)c(-c3ccccn3)c2)c(Cl)c1 [vismodegib] + COc1cc(N2CCC(N3CCN(C)CC3)CC2)ccc1Nc1ncc(Cl)c(Nc2ccccc2S(=O)(=O)C(C)C)n1 [NVP-TAE684] (first compound 1 µM, partner dose 0.08 µM) | 33.9 |
| NC(=O)c1ccc(N(C(N)=O)c2c(F)cccc2F)nc1-c1ccc(F)cc1F + O=C(O)C(=O)Nc1sc2c(c1C(=O)O)CCNC2 [TCS401] (first compound 0.4 µM, partner dose 1.66667 µM) | 27.9 |
| CCN(CC)CCNC(=O)c1c(C)[nH]c(/C=C2\C(=O)Nc3ccc(F)cc32)c1C [sunitinib] + CC(C)CCN1c2nc(Nc3cc(F)c(O)c(F)c3)ncc2N(C)C(=O)C1C [BID1870] (first compound 0.4 µM, partner dose 0.2 µM) | 73.6 |

The compounds below were run on A2058 in the same assay as above. Conditions: library dose: low library concentration; 72 h.

| SMILES | cleaved PARP positive nuclei fraction [%] |
| --- | --- |
| NC1(c2ccc(-c3nc4ccn5c(=O)[nH]nc5c4cc3-c3ccccc3)cc2)CCC1 + Cc1cc([N+](=O)[O-])ccc1NS(=O)(=O)c1cc(Cl)ccc1Cl [FH535] (first compound 0.4 µM, partner dose 1 µM) | 23.2 |
| NC1(c2ccc(-c3nc4ccn5c(=O)[nH]nc5c4cc3-c3ccccc3)cc2)CCC1 + O=S(=O)(c1ccccc1)N(CC(F)(F)F)c1ccc(C(O)(C(F)(F)F)C(F)(F)F)cc1 [T0901317] (first compound 0.4 µM, partner dose 1.4 µM) | 58.2 |
| CS(=O)(=O)c1ccc(C(=O)Nc2ccc(Cl)c(-c3ccccn3)c2)c(Cl)c1 [vismodegib] + Oc1cc(-c2nc(-c3ccccc3)[nH]c2-c2ccncc2)ccc1Cl [L779450] (first compound 1 µM, partner dose 0.2 µM) | 120 |
| C[C@]1(O)C[C@@H](c2nc(-c3ccc4ccc(-c5ccccc5)nc4c3)c3c(N)nccn32)C1 + CC(C)CCN1c2nc(Nc3cc(F)c(O)c(F)c3)ncc2N(C)C(=O)C1C [BID1870] (first compound 0.4 µM, partner dose 0.2 µM) | 64.9 |
| Cn1cnc2c(F)c(Nc3ccc(Br)cc3Cl)c(C(=O)NOCCO)cc21 [selumetinib] + CC(C)CCN1c2nc(Nc3cc(F)c(O)c(F)c3)ncc2N(C)C(=O)C1C [BID1870] (first compound 0.015 µM, partner dose 0.2 µM) | 187 |
| C[C@]1(O)C[C@@H](c2nc(-c3ccc4ccc(-c5ccccc5)nc4c3)c3c(N)nccn32)C1 + CCN(CC)CCCCNc1ncc2cc(-c3cc(OC)cc(OC)c3)c(NC(=O)NC(C)(C)C)nc2n1 [PD173074] (first compound 0.4 µM, partner dose 0.1 µM) | 155 |
| CCCCCCCCc1ccc(CCC(N)(CO)CO)cc1 [fingolimod] + Cn1cc(/C=C2\C(=O)Nc3cccnc32)c2ccccc21 [GW441756] (first compound 2 µM, partner dose 0.4 µM) | 81.2 |
| CS(=O)(=O)c1ccc(C(=O)Nc2ccc(Cl)c(-c3ccccn3)c2)c(Cl)c1 [vismodegib] + COc1ccc(COc2ccc(Cc3cnc(N)nc3N)cc2OC)cc1 [GW2580] (first compound 1 µM, partner dose 1 µM) | 139 |
| CC(=O)O[C@@]12CO[C@@H]1C[C@H](O)[C@@]1(C)C(=O)[C@H](O)C3=C(C)[C@@H](OC(=O)[C@H](O)[C@@H](NC(=O)OC(C)(C)C)c4ccccc4)C[C@@](O)([C@@H](OC(=O)c4ccccc4)[C@H]21)C3(C)C [Docetaxel] + c1cc(-c2cnn3cc(-c4ccc(OCCN5CCCCC5)cc4)cnc23)ccn1 [Dorsomorphin] (first compound 0.0001 µM, partner dose 0.4 µM) | 8030 |
| CS(=O)(=O)c1ccc(C(=O)Nc2ccc(Cl)c(-c3ccccn3)c2)c(Cl)c1 [vismodegib] + O=C(Nc1ccccc1)c1cc([N+](=O)[O-])ccc1Cl [GW9662] (first compound 1 µM, partner dose 2 µM) | 45.9 |
| NC(=O)c1ccc(N(C(N)=O)c2c(F)cccc2F)nc1-c1ccc(F)cc1F + COc1ccc(-c2ccc3c(N4CCOCC4)nc(N4C[C@@H](C)O[C@@H](C)C4)nc3n2)cc1CO [KU0063794] (first compound 0.4 µM, partner dose 0.02 µM) | 131 |
| CN(c1ncccc1CNc1nc(Nc2ccc3c(c2)CC(=O)N3)ncc1C(F)(F)F)S(C)(=O)=O + Oc1nc(-c2ccc(C(F)(F)F)cc2)nc2c1CSCC2 [XAV939] (first compound 0.08 µM, partner dose 2 µM) | 456 |
| CS(=O)(=O)c1ccc(C(=O)Nc2ccc(Cl)c(-c3ccccn3)c2)c(Cl)c1 [vismodegib] + COC(=O)c1sccc1S(=O)(=O)Nc1ccc(Nc2ccccc2)cc1OC [GSK0660] (first compound 1 µM, partner dose 1 µM) | 109 |
| Cn1sc(=O)n(Cc2ccccc2)c1=O + O=C(O)C(=O)Nc1sc2c(c1C(=O)O)CCNC2 [TCS401] (first compound 0.4 µM, partner dose 1.66667 µM) | 73.6 |
| Cn1cnc2c(F)c(Nc3ccc(Br)cc3Cl)c(C(=O)NOCCO)cc21 [selumetinib] + N#Cc1c(O)c2c(-c3ccc(-c4ccccc4O)cc3)csc2[nH]c1=O [A769662] (first compound 0.015 µM, partner dose 2 µM) | 57.4 |
| CCN(CC)CCNC(=O)c1c(C)[nH]c(/C=C2\C(=O)Nc3ccc(F)cc32)c1C [sunitinib] + N#Cc1c(O)c2c(-c3ccc(-c4ccccc4O)cc3)csc2[nH]c1=O [A769662] (first compound 0.4 µM, partner dose 2 µM) | 36.7 |
| CS(=O)(=O)c1ccc(C(=O)Nc2ccc(Cl)c(-c3ccccn3)c2)c(Cl)c1 [vismodegib] + Cn1cc(/C=C2\C(=O)Nc3cccnc32)c2ccccc21 [GW441756] (first compound 1 µM, partner dose 0.4 µM) | 75.4 |
| COc1ccc(C2=N[C@@H](c3ccc(Cl)cc3)[C@@H](c3ccc(Cl)cc3)N2C(=O)N2CCNC(=O)C2)c(OC(C)C)c1 [Nutlin-3] + Cn1cc(/C=C2\C(=O)Nc3cccnc32)c2ccccc21 [GW441756] (first compound 0.1 µM, partner dose 0.4 µM) | 150 |
| COc1ccc(C2=N[C@@H](c3ccc(Cl)cc3)[C@@H](c3ccc(Cl)cc3)N2C(=O)N2CCNC(=O)C2)c(OC(C)C)c1 [Nutlin-3] + COc1ccc(COc2ccc(Cc3cnc(N)nc3N)cc2OC)cc1 [GW2580] (first compound 0.1 µM, partner dose 1 µM) | 59.7 |
| C[C@@H](N)c1ccc(C(=O)Nc2ccnc3[nH]ccc23)cc1 + O=C1NC(=O)/C(=C/c2ccc(-c3ccc(F)cc3O)o2)S1 [AS252424] (first compound 0.4 µM, partner dose 1 µM) | 750 |
| C[C@]1(O)C[C@@H](c2nc(-c3ccc4ccc(-c5ccccc5)nc4c3)c3c(N)nccn32)C1 + Oc1cc(-c2nc(-c3ccccc3)[nH]c2-c2ccncc2)ccc1Cl [L779450] (first compound 0.4 µM, partner dose 0.2 µM) | 76.9 |
| CCCCCCCCc1ccc(CCC(N)(CO)CO)cc1 [fingolimod] + COC(=O)c1sccc1S(=O)(=O)Nc1ccc(Nc2ccccc2)cc1OC [GSK0660] (first compound 2 µM, partner dose 1 µM) | 155 |
| CCN(CC)CCNC(=O)c1c(C)[nH]c(/C=C2\C(=O)Nc3ccc(F)cc32)c1C [sunitinib] + O=C1NC(=O)/C(=C/c2ccc(-c3ccc(F)cc3O)o2)S1 [AS252424] (first compound 0.4 µM, partner dose 1 µM) | 127 |

No new results follow: entries from further up.

| SMILES | cleaved PARP positive nuclei fraction [%] |
| --- | --- |
| CS(=O)(=O)c1ccc(C(=O)Nc2ccc(Cl)c(-c3ccccn3)c2)c(Cl)c1 [vismodegib] + COC(=O)c1sccc1S(=O)(=O)Nc1ccc(Nc2ccccc2)cc1OC [GSK0660] (first compound 1 µM, partner dose 1 µM) | 109 |
| Cn1sc(=O)n(Cc2ccccc2)c1=O + O=C(O)C(=O)Nc1sc2c(c1C(=O)O)CCNC2 [TCS401] (first compound 0.4 µM, partner dose 1.66667 µM) | 73.6 |
